# PubChem BioAssay AID1259415 (National Center for Advancing Translational Sciences (NCATS), 2018)
# About 18,000 (4.4%) of roughly 410,000 compounds were called active. This list was built around the results that the source calls inconclusive (neither active nor inactive); the mix of calls is not that of the screen. Cut-off read from the data, not from the text of the source: active = activity change below about -60%; inconclusive = no clear call, values can overlap the other calls; inactive = above about -39%.
# Assay: qHTS Assay for inhibitors of the human cytomegalovirus (HCMV)
# Conditions: HFF cells, HCMV-luciferase reporter, 72 h; at 57.5 µM; hits give low values
# In short: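 Steps: HFFs plated, 16 h 37C; compounds added; HCMV-luciferase added to MOI 1 PFU/cell; 72 h 37C; OneGlo reagent, 5 min room temperature; luminescence read, normalized to controls.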
# % is set by controls: 0 for no effect and ±100 for the full control effect.
row,SMILES,"activity change, negative = inhibition"
1,COc1ccc(CONc2ncnc3nonc23)cc1[N+](=O)[O-],inconclusive: -42.5%
2,O=S(=O)(Nc1ccc2nc(-c3ccco3)[nH]c2c1)c1ccccc1,inactive: 16.8%
3,Oc1cc(OCc2ccccc2)ccc1-c1[nH]ncc1-c1ccccc1,inconclusive: -50.7%
4,O=C(Nc1ccc2c(c1)OCO2)N1CCN(c2ccccc2)CC1,inconclusive: -45.5%
5,COc1ccc(S(=O)(=O)N2CCCCC2)cc1C(C)C,inactive: 17.2%
6,CCCOc1ccc(-c2c(C(=O)N/N=C(\C)c3ccncc3)nnn2-c2nonc2N)cc1,inactive: 29.5%
7,COCc1ccc(CN2CCC(CO)(CC3CCCCO3)CC2)o1 (stereo unspecified),inconclusive: -51.8%
8,COCCNC(=O)COc1ncnc2scc(-c3ccc(F)cc3)c12,inconclusive: -45.1%
9,CCOc1ccc(-n2nc3c(Cl)nnc(C)c3c2C)cc1,inconclusive: -40.3%
10,Cc1ccc(NC(=O)c2c(C)noc2-c2snnc2C)cc1,inconclusive: -43.5%
11,Cc1ccc(-c2nnc(N3CCN(C(=O)COc4ccccc4)CC3)c3ccccc23)cc1,inconclusive: -48.8%
12,CCc1ccccc1NC(=O)Nc1ccc2c(c1)N(CC)C(=O)c1ccccc1S2,active: -84%
13,COc1ccc(OC)c(NC(=O)c2cc(-c3cc(C)cc(C)c3O)n[nH]2)c1,active: -67.8%
14,O=[N+]([O-])c1ccc(N2N=C(c3ccco3)CC2c2ccccc2)cc1 (stereo unspecified),inconclusive: -46.1%
15,Cc1ccnc(NC(=O)/C=C/c2ccccc2Cl)c1,inactive: -1.57%
16,CCOc1ccc(C(=O)N(Cc2sccc2C)C2CCS(=O)(=O)C2)cc1 (stereo unspecified),inactive: 51.9%
17,O=S(=O)(c1ccc2c(c1)OCO2)N1CCN(c2nnnn2-c2ccccc2)CC1,inconclusive: -42%
18,CCCN1C(=O)/C(=N\OCC(=O)NC23CC4CC(CC(C4)C2)C3)c2ccccc21,inconclusive: -50.2%
19,O=C(c1ccc(CSc2nc3ccncc3n2Cc2ccc(F)cc2)cc1)N1CCCCCC1,inactive: -22%

# Of the compounds above, these have a furan ring, fused or not.
row,SMILES,"activity change, negative = inhibition"
2,O=S(=O)(Nc1ccc2nc(-c3ccco3)[nH]c2c1)c1ccccc1,inactive: 16.8%
7,COCc1ccc(CN2CCC(CO)(CC3CCCCO3)CC2)o1 (stereo unspecified),inconclusive: -51.8%
14,O=[N+]([O-])c1ccc(N2N=C(c3ccco3)CC2c2ccccc2)cc1 (stereo unspecified),inconclusive: -46.1%

# More compounds.

row,SMILES,"activity change, negative = inhibition"
1,CCc1ccc(NC(=O)Cn2nc3c4ccccc4n(Cc4ccccc4)cc-3c2=O)cc1,inconclusive: -57.6%
2,COc1ccc(-n2c(O)c(C(C)=NCCN3CCNCC3)c(=O)[nH]c2=O)cc1,inconclusive: -41.8%
3,Cc1nnc(NC(=O)C2CCN(S(=O)(=O)c3cc([N+](=O)[O-])ccc3Cl)CC2)o1,inconclusive: -41.1%
4,O=C(c1ccc(-c2ccccc2Cl)o1)N1CCN(c2ccccc2O)CC1,inactive: 19.1%
5,COc1ccc(/C(C)=N/NC(=O)c2nnn(-c3nonc3N)c2-c2ccccc2)cc1,inconclusive: -40.5%
6,CC(CCc1ccccc1)NC(=O)c1ccc(Cl)nc1 (stereo unspecified),inconclusive: -48.4%
7,CCOC(=O)Cn1c(=O)oc2cc(S(=O)(=O)NC3CCCc4ccccc43)ccc21 (stereo unspecified),inconclusive: -44.2%
8,CC(C)C(=O)N1c2ncnn2C2(CCCCC2)[C@@H]2CCCC[C@@H]21,active: -111%
9,COc1cc(OC)c(OC)cc1/C=N/NC(=O)c1ccc(CSc2nc(C)cc(C)n2)cc1,inconclusive: 0%
10,O=C(c1ccc2c(=O)n(-c3ccccc3)c(=O)[nH]c2c1)N1CCCCC1,active: -66%
11,COc1ccc(C(=O)CSc2nc(-c3ccccn3)nc(C)c2Cl)cc1,inconclusive: -43.1%
12,Cc1ccc(Cl)cc1NS(=O)(=O)Cc1ccccc1,inactive: -29.2%
13,COc1ccc(C2CC(=O)N(Cc3ccc(F)cc3)c3ccccc3S2)cc1 (stereo unspecified),inconclusive: -55%
14,CCOC(=O)Cc1csc(NC(=O)Nc2cccc(Cl)c2)n1,active: -60.3%
15,COc1ccccc1/C=C1\SC(=S)N(CCC(=O)NCCCN2CCOCC2)C1=O,inconclusive: -47.5%
16,O=C(CSc1nnc(-c2ccncc2)o1)N1CCc2ccccc2C1,inconclusive: -40.9%
17,CCCCn1nnc(NC(=S)NC(=O)c2ccc(OCC)c([N+](=O)[O-])c2)n1,inconclusive: -44.1%
18,CCN(C(=O)c1cccc(Br)c1)c1ccccc1,inconclusive: -54.6%
19,O=C1CC(c2ccccc2Oc2cccc(Cl)c2)C(n2cncn2)C(=O)C1C1NCCc2ccccc21 (stereo unspecified),inconclusive: -45.5%

row,SMILES,"activity change, negative = inhibition"
1,O=C1CCN(Cc2ccccc2)CCN1CCO,inconclusive: -59.7%
2,CC(C)=CCc1ccc(O)c(=O)cc1C(C)C,active: -101%
3,Cc1ccc(/C=N/n2c(-c3ccco3)n[nH]c2=S)cc1,inconclusive: -47%
4,COC(=O)c1cccc(NC(=O)CCSc2ccc(Cl)cc2)c1C,inconclusive: -44.5%
5,O=C(CSc1ncc(-c2ccccc2)n1-c1ccccc1)NCc1ccco1,inconclusive: -54.3%
6,Cn1c(C(=O)NCc2ccccc2F)cc2oc3ccccc3c21,active: -63.1%
7,Cc1nccc(-c2cccc(N/N=C(\C#N)C(=O)c3ccccc3)c2)n1,inconclusive: -54%
8,CCCN(CCC)S(=O)(=O)c1ccc(NC(=O)Cc2cccs2)cc1,inconclusive: -51%
9,CCc1ccccc1NC(=O)C1NC(=O)CC1c1ccccc1 (stereo unspecified),inconclusive: -43.1%
10,COc1ccc(CCN2CC(C(=O)NCCc3cn[nH]c3)CCC2=O)cc1 (stereo unspecified),inactive: 10.3%
11,COc1ccc(C(C(C(=O)c2ccco2)N2CCOCC2)N2CCOCC2)cc1 (stereo unspecified),inactive: -3.46%
12,O=C(Nc1cccc(Cl)c1)c1ccc(S(=O)(=O)NCC2CCCO2)cc1 (stereo unspecified),inconclusive: -40.1%
13,Cc1cc(C)nc(NC(=O)CSc2nn(-c3ccccc3)c(=S)s2)n1,inconclusive: -42.2%
14,Cc1cc(C)c2nc(N(Cc3cccnc3)C(=O)c3ccc(S(=O)(=O)N(C)C)cc3)sc2c1,inactive: 0%
15,O=C(Nc1ccc(Oc2cccnc2)cc1)c1ccc([N+](=O)[O-])cc1,inactive: -16.9%
16,COC(=O)C1(C)NC(c2cccc(C)c2)C2C(=O)N(c3ccc(F)cc3)C(=O)C21 (stereo unspecified),inactive: -1.77%
17,Cc1ccc(-c2cc(C(=O)N/N=C/c3c(C)nn(-c4ccccc4)c3C)n[nH]2)s1,active: -91.9%
18,COc1ccc(C(=O)CSc2nc3nn(-c4ccccc4)c(=O)c-3c3n2CCCCC3)c(OC)c1,inconclusive: -43.6%
